From patent US20230151014A1 (Repare Therapeutics Inc., priority 2020, published 2023) come the findings set out here.

Protein sequences, listed by entry. Tags and fused reporters are not part of them.
UniProt Q99640, whole entry: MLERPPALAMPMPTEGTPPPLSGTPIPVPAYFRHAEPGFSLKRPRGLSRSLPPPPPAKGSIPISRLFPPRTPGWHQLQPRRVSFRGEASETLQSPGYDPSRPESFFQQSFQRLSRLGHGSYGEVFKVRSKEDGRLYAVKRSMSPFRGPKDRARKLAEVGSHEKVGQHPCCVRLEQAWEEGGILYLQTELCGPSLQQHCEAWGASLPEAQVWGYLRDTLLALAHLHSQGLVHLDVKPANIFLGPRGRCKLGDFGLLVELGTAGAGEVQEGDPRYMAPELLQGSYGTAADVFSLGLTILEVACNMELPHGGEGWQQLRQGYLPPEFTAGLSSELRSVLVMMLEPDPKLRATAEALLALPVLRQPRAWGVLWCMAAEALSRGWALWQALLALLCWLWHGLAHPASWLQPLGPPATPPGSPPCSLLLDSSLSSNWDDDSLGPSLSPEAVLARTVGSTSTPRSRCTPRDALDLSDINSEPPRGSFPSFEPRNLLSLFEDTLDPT

The match of structure and compound is tentative.

In the first experiment the target is recombinant human Myt1 (Homo sapiens, UniProt Q99640). Nature of the experiment: Myt1 enzymatic assay (ADP-Glo kinase assay, IC50 and % max inhibition). The class given is biochemical. The following applies: read-out: Myt1 IC50.
On to `Cc1ccc(O)c(C)c1-n1cc(C(N)=O)c2cc(C3CC3)cnc21` [144], for which the IC50 is < 0.01 µM.

As to `Cc1ccc(O)c(C)c1-n1cc(C(N)=O)c2cc(C3CC3)cnc21` [145], the IC50 is > 2 µM.

The same experiment, now with this note: read-out: Myt1 IC50; recombinant human Myt1 18 nM, ATP 10 μM, ADP-Glo.
As to `Cc1ccc(O)c(C)c1-n1c(N)c(C(N)=O)c2cc(Br)cnc21` [Compound 141], the IC50 was < 0.01 µM. Regarding `Cc1ccc(O)c(Cl)c1-n1c(N)c(C(N)=O)c2nc(C3CC3)cnc21` [105], the IC50 turned out to be 3.06 µM. Same read-out and setting: next, `Cc1ccc(O)c(C)c1-n1c(N)c(C(N)=O)c2cc(N3CCCC3=O)cnc21` [300]: > 2 µM; `Cc1ccc(O)c(C)c1-n1c(N)c(C(N)=O)c2cc(C(C)C)cnc21` [140]: 0.526 µM. The same measure, in the same setting: next, `Cc1ccc(O)c(C)c1-n1c(N)c(C(N)=O)c2cc(-c3nccs3)cnc21` [310]: > 2 µM. As to `Cc1ccc(O)c(C)c1-n1c(N)c(C(N)=O)c2c(Cl)c(Cl)cnc21` [317], the IC50 was < 0.01 µM. Regarding `CCN(CC)c1cnc2c(n1)c(C(N)=O)c(N)n2-c1c(C)ccc(O)c1C` [89], the IC50 is < 0.01 µM. In the case of `Cc1ccc2c(C(N)=O)c(N)n(-c3c(C)ccc(O)c3C)c2n1` [195], the IC50 is < 0.01 µM. Consider `Cc1ccc(O)c(C)c1-n1c(N)c(C(N)=O)c2cc(Br)c(C)nc21` [188], for which the IC50 is < 0.01 µM. With `Cc1ccc(O)c(C)c1-n1c(N)c(C(N)=O)c2cc(C3=CCOCC3)cnc21` [305], the IC50 is < 0.01 µM.

On to `Cc1ccc(O)c(C)c1-n1c(N)c(C(N)=O)c2c(C)c(Cl)cnc21` [315], for which the IC50 is > 2 µM. Same read-out and setting: next, `Cc1ccc(O)c(C)c1-n1c(N)c(C(N)=O)c2cc(C(C)(C)O)cnc21` [323]: > 2 µM; `Cc1ccc(O)c(C)c1-n1c(N)c(C(N)=O)c2cc(-c3nccs3)cnc21` [309]: < 0.01 µM; `Cc1ccc(O)c(C)c1-n1c(N)c(C(N)=O)c2nc(-c3cnccn3)cnc21` [39]: > 5 µM. Consider `Cc1ccc(O)c(C)c1-n1c(N)c(C(N)=O)c2cc(N3CCCC3=O)cnc21` [299], for which the IC50 was < 0.01 µM. With `Cc1ccc(O)c(C)c1-n1c(N)c(C(N)=O)c2c(C)c(C)cnc21` [127], the IC50 worked out at 0.271 µM. Still for that read-out and setting: next, `Cc1ccc(O)c(C)c1-n1c(N)c(C(N)=O)c2cc(-c3ccccn3)cnc21` [296]: < 0.01 µM. Regarding `Cc1ccc(O)c(Cl)c1-n1c(N)c(C(N)=O)c2nc(C)c(C)nc21` [172], the IC50 is < 0.01 µM. Same read-out and setting: then `Cc1ccc(O)c(Br)c1-n1c(N)c(C(N)=O)c2cc(Cl)cnc21` [291], with > 2 µM; and `Cc1ccc(O)c(C)c1-n1c(N)c(C(N)=O)c2nc(-c3cnccn3)cnc21` [40], with < 0.01 µM. Turning to `Cc1ccc(O)c(C)c1-n1c(N)c(C(N)=O)c2cc(C(C)C)cnc21` [139], the IC50 is < 0.01 µM. Still for that read-out and setting: next, `Cc1ccc(O)c(C)c1-n1c(N)c(C(N)=O)c2nc(C3CCCCC3)cnc21` [84]: < 0.01 µM. On to `Cc1ccc(O)c(C)c1-n1c(N)c(C(N)=O)c2nc(C3CCC3)cnc21` [174], for which the IC50 was < 0.01 µM. Same read-out and setting: next, `Cc1ccc(-c2cnc3c(n2)c(C(N)=O)c(N)n3-c2c(C)ccc(O)c2C)nc1` [63]: < 0.01 µM; `Cc1ccc(O)c(C)c1-n1c(N)c(C(N)=O)c2nc(C3CCC3)cnc21` [175]: > 5 µM; `Cc1c(O)ccc(Br)c1-n1c(N)c(C(N)=O)c2cc(Cl)cnc21` [302]: < 0.01 µM. `Cc1ccc(O)c(C)c1-n1c(N)c(C(N)=O)c2cc(I)cnc21` [320]: the IC50 is < 0.01 µM. As for `Cc1ccc(O)c(Cl)c1-n1c(N)c(C(N)=O)c2nc(C3CC3)cnc21` [106], the IC50 was < 0.01 µM. Same read-out and setting: next, `Cc1ccc(-c2cnc3c(n2)c(C(N)=O)c(N)n3-c2c(C)ccc(O)c2C)nc1` [62]: > 5 µM; `CCN(CC)c1cnc2c(n1)c(C(N)=O)c(N)n2-c1c(C)ccc(O)c1C` [90]: 2.8 µM; `CC(=O)c1c(N)n(-c2c(C)ccc(O)c2C)c2ncc(-c3cnccn3)nc12` [98]: > 5 µM. The same measure, in the same setting: then `Cc1ccc(O)c(C)c1-n1c(N)c(C(N)=O)c2cc(-c3ccccn3)cnc21` [297], with > 2 µM. Still for that read-out and setting: next, `Cc1ccc(O)c(C)c1-n1c(N)c(C(N)=O)c2cc(I)cnc21` [321]: > 2 µM. On to `Cc1ccc(O)c(Cl)c1-n1c(N)c(C(N)=O)c2nc(C)c(C)nc21` [171], for which the IC50 was found to be 6.14 µM. Same read-out and setting: next, `Cc1ccc(O)c(C)c1-n1c(N)c(C(N)=O)c2c(C)c(Cl)cnc21` [314]: < 0.01 µM. Still for that read-out and setting: then `Cc1ccc(O)c(C)c1-n1c(N)c(C(N)=O)c2c(C)c(C)cnc21` [126], with < 0.01 µM. Same read-out and setting: then `Cc1ccc(O)c(C)c1-n1c(N)c(C(N)=O)c2nc(C3CCCCC3)cnc21` [82], with > 5 µM; and `CC(=O)c1c(N)n(-c2c(C)ccc(O)c2C)c2ncc(-c3cnccn3)nc12` [99], with < 0.01 µM; and `Cc1ccc(O)c(C)c1-n1c(N)c(C(N)=O)c2cc(C3=CCOCC3)cnc21` [306], with > 2 µM.

In the case of `Cc1ccc(O)c(C)c1-n1c(N)c(C(N)=O)c2cc(C(C)(C)O)cnc21` [322], the IC50 was < 0.01 µM. The same measure, in the same setting: then `[2H]C([2H])([2H])c1nc2c(nc1C1CC1)c(C(N)=O)c(N)n2-c1c(C)ccc(O)c1C` [Compound 111], with < 0.01 µM; and `Cc1c(O)ccc(Br)c1-n1c(N)c(C(N)=O)c2cc(Cl)cnc21` [303], with > 2 µM. The same measure, in the same setting: then `Cc1ccc(O)c(Br)c1-n1c(N)c(C(N)=O)c2cc(Cl)cnc21` [290], with < 0.01 µM; and `Cc1ccc2c(C(N)=O)c(N)n(-c3c(C)ccc(O)c3C)c2n1` [194], with > 2 µM. Same read-out and setting: then `Cc1ccc(O)c(C)c1-n1c(N)c(C(N)=O)c2c(Cl)c(Cl)cnc21` [318], with > 2 µM.
